From article PMC8008952
These are yes or no findings as the source states them, for the method shown. In cells and extracts the contact can be indirect. These calls come from enrichment with a bait or labelling near it, and not all partners need be listed.

Chains of the proteins cited; added tags and fusions are not shown.
UniProt P18608: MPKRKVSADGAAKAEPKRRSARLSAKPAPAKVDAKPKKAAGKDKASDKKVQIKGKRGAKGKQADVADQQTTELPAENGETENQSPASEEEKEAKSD
UniProt Q9QY76: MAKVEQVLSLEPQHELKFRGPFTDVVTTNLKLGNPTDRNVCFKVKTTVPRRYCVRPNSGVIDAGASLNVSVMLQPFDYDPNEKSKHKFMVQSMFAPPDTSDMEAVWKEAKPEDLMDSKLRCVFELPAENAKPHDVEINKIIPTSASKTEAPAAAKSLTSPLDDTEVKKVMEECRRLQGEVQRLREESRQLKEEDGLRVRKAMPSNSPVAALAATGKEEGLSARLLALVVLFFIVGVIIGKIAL
UniProt Q3U9G9: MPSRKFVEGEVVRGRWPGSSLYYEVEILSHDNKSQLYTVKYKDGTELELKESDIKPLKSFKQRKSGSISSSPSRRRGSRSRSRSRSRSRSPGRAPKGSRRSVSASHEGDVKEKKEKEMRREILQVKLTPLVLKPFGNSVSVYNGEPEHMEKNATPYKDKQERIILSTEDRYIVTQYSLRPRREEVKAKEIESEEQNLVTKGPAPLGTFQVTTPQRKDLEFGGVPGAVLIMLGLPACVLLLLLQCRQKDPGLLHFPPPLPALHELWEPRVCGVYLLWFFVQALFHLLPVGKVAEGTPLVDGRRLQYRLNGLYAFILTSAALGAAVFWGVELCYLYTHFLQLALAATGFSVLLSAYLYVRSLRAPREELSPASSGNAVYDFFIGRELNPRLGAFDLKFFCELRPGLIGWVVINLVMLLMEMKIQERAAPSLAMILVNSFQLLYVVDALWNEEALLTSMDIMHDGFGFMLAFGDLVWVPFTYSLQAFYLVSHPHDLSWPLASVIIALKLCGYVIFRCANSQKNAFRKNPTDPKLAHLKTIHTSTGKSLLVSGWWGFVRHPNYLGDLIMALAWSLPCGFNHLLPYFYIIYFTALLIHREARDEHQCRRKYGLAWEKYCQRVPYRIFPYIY

T1: BirA*-Lap2β (lamina-associated polypeptide β with BirA* on its nucleoplasmic N terminus) (mouse (cDNA from MEFs)) (UniProt Q61029)
T1 sequence: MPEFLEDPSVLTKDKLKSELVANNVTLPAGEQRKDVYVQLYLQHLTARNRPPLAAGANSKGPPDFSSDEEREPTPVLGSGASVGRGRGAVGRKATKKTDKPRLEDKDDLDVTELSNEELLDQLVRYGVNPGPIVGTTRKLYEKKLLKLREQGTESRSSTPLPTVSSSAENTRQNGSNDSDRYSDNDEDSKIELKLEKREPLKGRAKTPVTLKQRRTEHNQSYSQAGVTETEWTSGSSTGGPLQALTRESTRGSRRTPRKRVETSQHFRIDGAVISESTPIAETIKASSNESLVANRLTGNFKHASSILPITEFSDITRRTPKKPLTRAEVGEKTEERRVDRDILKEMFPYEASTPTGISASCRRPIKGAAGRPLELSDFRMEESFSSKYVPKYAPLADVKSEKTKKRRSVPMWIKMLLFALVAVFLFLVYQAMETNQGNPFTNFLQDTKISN

B1: Lamin B1 (protein, UniProt P14733 1-588)
chain: MATATPVQQQRAGSRASAPATPLSPTRLSRLQEKEELRELNDRLAVYIDKVRSLETENSALQLQVTEREEVRGRELTGLKALYETELADARRALDDTARERAKLQIELGKFKAEHDQLLLNYAKKESDLSGAQIKLREYEAALNSKDAALATALGDKKSLEGDLEDLKDQIAQLEASLSAAKKQLADETLLKVDLENRCQSLTEDLEFRKNMYEEEINETRRKHETRLVEVDSGRQIEYEYKLAQALHEMREQHDAQVRLYKEELEQTYHAKLENARLSSEMNTSTVNSAREELMESRMRIESLSSQLSNLQKESRACLERIQELEDMLAKERDNSRRMLSDREREMAEIRDQMQQQLSDYEQLLDVKLALDMEISAYRKLLEGEEERLKLSPSPSSRVTVSRASSSRSVRTTRGKRKRVDVEESEASSSVSISHSASATGNVCIEEIDVDGKFIRLKNTSEQDQPMGGWEMIRKIGDTSVSYKYTSRYVLKAGQTVTVWAANAGVTASPPTDLIWKNQNSWGTGEDVKVILKNSQGEEVAQRSTVFKTTIPEEEEEEEEEPIGVAVEEERFHQQGAPRASNKSCAIM
B2: Lamin B2 (protein, UniProt P21619 1-596)
chain: MASLPPHAGPATPLSPTRLSRLQEKEELRELNDRLAHYIDRVRALELENDRLLLRISEKEEVTTREVSGIKTLYESELADARRVLDETARERARLQIEIGKVQAELEEARKSAKKREGELTVAQGRVKDLESLFHRSEAELATALSDKQGLETEVAELRAQLAKAEDGHAVAKKQLEKETLMRVDLENRCQSLQEELAFSKSVFEEEVRETRRRHERRLVEVDSSRQQEYDFKMAQALEDLRSQHDEQVRLYRVELEQTYQAKLDNAKLLSDQNDKAAHAAREELKEARMRVESLSYQLLGLQKQASAAENHIHELEEALAGERDKFRKMLDAKEQEMTEVRDAMQQQLAEYQELLDIKLALDMEISAYRKLLEGEEERLKLSPSPSSRITISRATSSSSSSSGVGMSVGQGRGKRRRLETEDTSGSPSRASRVSSGSRLAQQTVATGVVNIDEVDPEGRFVRLKNSSDKDQSLGNWRIKRQVLEGEDIAYKFTPKYVLRAGQTVTVWAAGAGATHSPPSTLVWKSQTNWGPGESFRTALVSADGEEVAVKAAKHSSVQGRENGEEEEEEEAEFGEEDLFHQQGDPRTTSRGCRLM
B3: LEM-domain containing protein 3 (MAN1) (protein, UniProt Q9WU40 1-921)
chain: MAAATAAAAPQQLSDEELFSQLRRYGLSPGPVTESTRPVYLKKLKKLREEEQQQQQQQQQQQHRAGGRGNKTRNSNNNNTATAMGGRPGSGDLAYLRSPAGLGRLSASAAESPVAGGSGGAAAVPAAGSKVLLGFSSDESDVEASPREQAGGGGGGGARRDRAALQYRGLRAPPAPPAAGEVTGGHPGERRKPHSWWGARRPAGPEPQPPAAGSDGAAEDADEELADGEDRDPEAEEPLWASRAVNGSRLLPYSSCREHYSDSEEEEEEGEEDGDVAPARQVLKDDSLARHRPRRSHSKPFSALTAKSGGSRQETSVQGGGALAMNDRAAAAGSLDRSRNLEEAAAEPGGGGGGGCGCDPVDSIPRYRAGAKKLAPLLSPPSPDGDSTLESPTGPLLKTNNHIGGGAFGVDSPGLYANSLPPGATAAAAPGTLRINHANHTGSNHTYLKTAYGKPKLCEPEEELLQQFKREEVSPTGSFSAHYLSMFLLTAACLFFLILGLTYLGMRGTGVPEDGGLIKNPFDETFGKIQESEKNLLMSTLYKLHDRLAQIAGDHECGSSSQRMLSVQEAAAYLKNLGPEYEDVFNTSLLWIFKNGKDVGIRCVGYGPEEDLTNITDVQFLQSTRPQMPFWCRFRRAFITVTHRLLLLCLGVVLVCVALRYMRYRWTKEEEETRQMYDMVVKIIDVLRSHNEACQETKDLQPYMPLPHVRDSLIQPQDRKKMKKVWDRAVDFLAANESRVRTETRRVGGADFLVWRWIQPSASCDKTLVIPSKVWQGQAFHLDRRNSPPNSLTPCLKIRNMFDPVMEIGDHWHLAIQEAILEKCSDNDGIVHIAVDRNSREGCVYVKCLSPEYAGKAFKALHGSWFDGKLVTVKYLRLDRYHHRFPQALTCNTPLKPANKHMNSLSHLRLRTGLANSQGSS
B4: SUN domain-containing protein 2 (SUN2) (protein, UniProt Q8BJS4 1-731)
chain: MSRRSQRLTRYSQDDNDGGSSSSGASSVAGSQGTVFKDSPLRTLKRKSSNMKHLSPAPQLGPSSDSHTSYYSESVVRESYIGSPRAVSLARSALLDDHLHSEPYWSGDLRGRRRRGTGGSESSKANGLTAESKASEDFFGSSSGYSSEDDLAGYTDSDQHSSGSRLRSAASRAGSFVWTLVTFPGRLFGLLYWWIGTTWYRLTTAASLLDVFVLTRSRHFSLNLKSFLWFLLLLLLLTGLTYGAWHFYPLGLQTLQPAVVSWWAAKESRKQPEVWESRDASQHFQAEQRVLSRVHSLERRLEALAADFSSNWQKEAIRLERLELRQGAAGHGGGSSLSHEDALSLLEGLVSRREATLKEDLRRDTVAHIQEELATLRAEHHQDSEDLFKKIVQASQESEARVQQLKTEWKSMTQEAFQESSVKELGRLEAQLASLRQELAALTLKQNSVADEVGLLPQKIQAARADVESQFPDWIRQFLLGDRGARSGLLQRDEMHAQLQELENKILTKMAEMQGKSAREAAASLGQILQKEGIVGVTEEQVHRIVKQALQRYSEDRIGMVDYALESGGASVISTRCSETYETKTALLSLFGIPLWYHSQSPRVILQPDVHPGNCWAFQGPQGFAVVRLSARIRPTAVTLEHVPKALSPNSTISSAPKDFAIFGFDEDLQQEGTLLGTFAYDQDGEPIQTFYFQASKMATYQVVELRILTNWGHPEYTCIYRFRVHGEPAH
B5: transmembrane protein 214 (TMEM214) (protein, UniProt Q8BM55 1-687)
chain: MAARSAGSGGWEVVKRGRRPGASSGGRGGGGGSDRRALGEANGVLKYDLSSPIQTTSTLYERGFEKIMKRQNKEQVPPPAAESKKPINKKQPKKVTAVPSQNQKQGPFRRLEDALKALDVAALQKELDKSQSVFTGNPSVWLKDLASYLNYKLQTPRMEPTLSQYPHDYPYSLVSRELRGIIRGLLTKAAGSVELFFDHCLFTMLQELDKTPGESLHGYRICIQAVLQDKPKIVTSNLDKFLELLRSHQSRPAKCLTIMWALGQAGFTNLTEGLKVWLGIMLPVLGIKALSPFAIAYLDRLLLMHPNLTKGFGMIGPKDFFPLLDFAYMPNNSLSPSLQEQLCQLFPRLKVLAFGAKPESSLHTYFPSFLSRATPSCPAAMKKELLASLTQCLTVDPLSTSVWRQLYPKHLSQSSLLLEHLLKSWEHIPKKARKSLQETIQSLKVTNQELLKKGSGGSEHVLTCDTACKGLLQRARGPRPPWARLFLLLLVFAVGFLCHDLRSNSSLQASLTGRLLRSSGLLPVGQQVCARLSSYSLQSYNWLQETLPACGSHLLAVVQPSLQLAWTHIYAIFSFLSAHCASYLACFSDSLAGFFQRVQLPEALQQLFHALKELLLLFCHSVLLPTWHLLLAALAQVQEHCHEACRGDVTWDCIKTQLSRAAQWTWLCLQDVTVAFLDWALTMISQQ
B6: nucleoporin NDC1 (NDC1) (protein, UniProt Q8VCB1 1-673)
chain: MATAASGPCAGGSPRDILWRVLGWRIVTSIVWSVVLLPVCITAFIVLSSINLFHPIQWLSDSCNDFYSSQVIFHLLLLAVVIIIISIFNVEFYTVVPSISGSRLALIARILHPQQLTHSFIHAAMGMAVAWCAAIMTKGQYSSLVVPCTGTESLDSPAAQTCLNEYHLFFLLSGAFMGYSYSLLYFINNMNYLPFPIIQQYKFLRFRRSLLLLVKHSCVESLFMVRNFCIVYYFFGHIPKAWISTALDLHTDEQAHRPLDTIGGLLNVSLLYHVWLCGVFLLVTWYSSWILFKIYATEAHVFPVQPPFAEASDECLPKVLNSNPPRIVKYLALQDLMLLSQYSPSRRQEVFSLSQPGGHPHNWTAISRECLNLLNDMTQKLVLYQEAAATNGRMYSSYSVEPKKLSSAEETAFQTPKPSQTPSVPPLVKTSLFSPKLSTPNVSSPFGTPFGSSVVNRMAGILDVNPFSGSPQSPQLIRRGPRLWTHTSDQQVSAISNPSPCASVTAEGKTVRQPSVIYSWIQNKREQIKNFLSKRVLIMYFFSKHPEASIQAVFSDAQMHIWALEGLSHLVAASFTEDRFGVVQTTLPAILHTLLTLQEAVDKYFKLPHASSKPPRASGSLVDTSYKTLRFAFRASLKTAIYRITTTFGEHLNAVQASAEHQKRLQQFLEFKE
B7: SUN domain-containing protein 1 (SUN1) (protein, UniProt Q9D666 1-913)
chain: MDFSRLHTYTPPQCVPENTGYTYALSSSYSSDALDFETEHKLEPVFDSPRMSRRSLRLVTTASYSSGDSQAIDSHISTSRATPAKGRETRTVKQRRSASKPAFSINHLSGKGLSSSTSHDSSCSLRSATVLRHPVLDESLIREQTKVDHFWGLDDDGDLKGGNKAATQGNGELAAEVASSNGYTCRDCRMLSARTDALTAHSAIHGTTSRVYSRDRTLKPRGVSFYLDRTLWLAKSTSSSFASFIVQLFQVVLMKLNFETYKLKGYESRAYESQSYETKSHESEAHLGHCGRMTAGELSRVDGESLCDDCKGKKHLEIHTATHSQLPQPHRVAGAMGRLCIYTGDLLVQALRRTRAAGWSVAEAVWSVLWLAVSAPGKAASGTFWWLGSGWYQFVTLISWLNVFLLTRCLRNICKVFVLLLPLLLLLGAGVSLWGQGNFFSLLPVLNWTAMQPTQRVDDSKGMHRPGPLPPSPPPKVDHKASQWPQESDMGQKVASLSAQCHNHDERLAELTVLLQKLQIRVDQVDDGREGLSLWVKNVVGQHLQEMGTIEPPDAKTDFMTFHHDHEVRLSNLEDVLRKLTEKSEAIQKELEETKLKAGSRDEEQPLLDRVQHLELELNLLKSQLSDWQHLKTSCEQAGARIQETVQLMFSEDQQGGSLEWLLEKLSSRFVSKDELQVLLHDLELKLLQNITHHITVTGQAPTSEAIVSAVNQAGISGITEAQAHIIVNNALKLYSQDKTGMVDFALESGGGSILSTRCSETYETKTALLSLFGVPLWYFSQSPRVVIQPDIYPGNCWAFKGSQGYLVVRLSMKIYPTTFTMEHIPKTLSPTGNISSAPKDFAVYGLETEYQEEGQPLGRFTYDQEGDSLQMFHTLERPDQAFQIVELRVLSNWGHPEYTCLYRFRVHGEPIQ

Target: T1, BirA*-Lap2β (lamina-associated polypeptide β with BirA* on its nucleoplasmic N terminus) (mouse (cDNA from MEFs))
Assay: proximity labelling; BioID with BioSITe: cells expressing BirA*-Lap2β cultured overnight with 50 μM biotin, crude nuclear extraction, tryptic digest, biotinylated peptides captured with anti-biotin antibody, LC-MS/MS; proteins enriched >2-fold over BirA*-m6A-tracer alone (control) taken as LAP2β proximity/interaction

binding, binds:
B1, B2, B3, B4, B5, B6, B7

Target: T1, BirA*-Lap2β (lamina-associated polypeptide β with BirA* on its nucleoplasmic N terminus) (mouse (cDNA from MEFs))
Assay: as above
Remark: another data set of the same source

binding, binds:
HMGN1 (from UniProt P18608 1-96), vesicle-associated membrane protein-associated protein B (VAPB) (from UniProt Q9QY76 1-243), Lamin B receptor (LBR) (from UniProt Q3U9G9 1-626)
